Results: PubChem BioAssay AID485294 (National Center for Advancing Translational Sciences (NCATS), 2010)
Among all 370,000 compounds or so, about 150 (0.041%) were called active. The source calls these results inconclusive, neither active nor inactive. Calls follow the shape of the dose curve; as a rule, active = well fitted inhibition curve with a large enough effect; inconclusive = small, poorly fitted or top-dose-only effect; inactive = flat fitted curve, though single readings scatter.
Also: nearly all actives have a fitted effect of over 25% in size.
Potency is read from the fitted curve at half-maximal effect.

Sequences of proteins named here, by UniProt entry; tags and fusion partners are left off.
UniProt P00811, whole entry: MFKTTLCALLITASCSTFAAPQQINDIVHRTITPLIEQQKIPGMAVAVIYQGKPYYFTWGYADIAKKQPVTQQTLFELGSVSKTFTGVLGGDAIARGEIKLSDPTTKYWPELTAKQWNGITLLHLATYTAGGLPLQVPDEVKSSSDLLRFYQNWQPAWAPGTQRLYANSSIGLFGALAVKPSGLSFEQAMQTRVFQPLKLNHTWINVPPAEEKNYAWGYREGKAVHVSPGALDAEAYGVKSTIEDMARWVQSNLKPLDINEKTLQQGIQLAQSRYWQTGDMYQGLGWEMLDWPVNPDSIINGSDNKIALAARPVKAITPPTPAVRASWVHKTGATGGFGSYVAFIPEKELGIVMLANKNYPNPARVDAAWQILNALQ

These compounds were tested against Beta-lactamase (Escherichia coli (strain K12)) (UniProt P00811) (assay: qHTS Inhibitors of AmpC Beta-Lactamase (assay with detergent)). Conditions: AmpC hydrolysis of nitrocefin, absorbance 480 nm, 0.01% Triton.
In the case of `CCOC(=O)C(CC)C1=NC(C)(C)Cc2ccccc21.O=[N+]([O-])c1cc([N+](=O)[O-])c(O)c([N+](=O)[O-])c1` (stereo not given), the Potency is reported as inconclusive: 100 µM.
`CCc1cc(C(=O)NCC2(N3CCCCC3)CCCCC2)sc1C` was tested, and the Potency was inconclusive: 2 µM.
For `CN1CCC(Nc2ccc(F)c(Cl)c2)CC1`, the Potency was inconclusive: 50.1 µM.
For `CC(C)(C)OC(=O)N1CCC(Nc2ccccc2)CC1`, the Potency was inconclusive: 39.8 µM.
For `CCN1CCC(Nc2cccc(F)c2)CC1`, the Potency was inconclusive: 100 µM.
`Fc1ccccc1NC1CCN(Cc2ccccc2)CC1` was tested, and the Potency was inconclusive: 31.6 µM.
With `CCCCOc1ccc(C(=O)NCC2(N3CCOCC3)CCCCC2)cc1` the Potency was inconclusive: 89.1 µM.
For `O=C(NCC1(N2CCOCC2)CCCCC1)c1cc2ccccc2o1`, the Potency was inconclusive: 10 µM.
With `O=C(NCC1(N2CCCCC2)CCCCC1)c1cccs1` the Potency was inconclusive: 5.01 µM.
`O=C(NCC1(N2CCCCC2)CCCCC1)c1cccc(C(F)(F)F)c1` was tested, and the Potency was inconclusive: 0.708 µM.
